Experimental data taken from article PMC11297949.
Results are given in words; binding and its absence hold for the method and conditions named. In cells and extracts the contact can be indirect. These calls come from enrichment with a bait or labelling near it, and not all partners need be listed.

By UniProt entry, the sequences of proteins in these tests, tags left out.
UniProt Q5T2D3: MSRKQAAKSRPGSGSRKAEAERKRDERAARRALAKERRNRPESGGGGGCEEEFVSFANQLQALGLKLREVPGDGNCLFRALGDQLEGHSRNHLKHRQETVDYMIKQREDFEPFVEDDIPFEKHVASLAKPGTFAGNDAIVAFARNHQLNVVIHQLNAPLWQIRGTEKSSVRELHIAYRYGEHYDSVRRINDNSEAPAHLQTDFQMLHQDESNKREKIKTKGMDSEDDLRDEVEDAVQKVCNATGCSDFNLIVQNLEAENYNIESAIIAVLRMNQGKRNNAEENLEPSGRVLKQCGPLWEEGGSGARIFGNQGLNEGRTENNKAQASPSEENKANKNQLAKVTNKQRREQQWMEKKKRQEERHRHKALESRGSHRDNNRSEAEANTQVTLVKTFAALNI

Molecular target: OTUD3 overexpressed in Farage cells (UniProt Q5T2D3)
Assay: affinity purification with mass spectrometry; immunoprecipitation from lysates of Farage cells overexpressing OTUD3 versus controls, then mass spectrometry

binding: binds
B1: MYL12A in Farage cells (protein, UniProt P19105 1-171)
chain: MSSKRTKTKTKKRPQRATSNVFAMFDQSQIQEFKEAFNMIDQNRDGFIDKEDLHDMLASLGKNPTDEYLDAMMNEAPGPINFTMFLTMFGEKLNGTDPEDVIRNAFACFDEEATGTIQEDYLRELLTTMGDRFTDEEVDELYREAPIDKKGNFNYIEFTRILKHGAKDKDD
